This passage reports binding results from paper PMC12594206.

Results are given in words; binding and its absence hold for the method and conditions named. In cells and extracts the contact can be indirect. Some results given as binding are weak or reduced against the parent protein; the word gives no strength.

The test concerns the target T1, Epithelial V-like antigen 1 homolog C (EVA1C) (human (endogenous in SH-SY5Y)) (UniProt P58658).
T1 sequence: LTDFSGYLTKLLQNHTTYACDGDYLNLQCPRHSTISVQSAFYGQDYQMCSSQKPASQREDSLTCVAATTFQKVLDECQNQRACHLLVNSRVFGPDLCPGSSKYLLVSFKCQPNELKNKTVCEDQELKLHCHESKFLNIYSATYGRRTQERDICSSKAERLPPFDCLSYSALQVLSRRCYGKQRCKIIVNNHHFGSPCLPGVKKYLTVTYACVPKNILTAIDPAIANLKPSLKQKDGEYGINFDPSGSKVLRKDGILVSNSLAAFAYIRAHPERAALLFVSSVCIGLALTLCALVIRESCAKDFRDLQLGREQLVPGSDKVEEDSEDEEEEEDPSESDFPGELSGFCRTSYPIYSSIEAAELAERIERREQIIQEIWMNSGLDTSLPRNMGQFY
The test is described as follows: co-IP; lysate (0.5 mg) of SH-SY5Y cells overexpressing 2N3R Tau, with or without NR (0.5 mM); nuclease-treated; 2 ug anti-EVA1C or control IgG at 4 C overnight, Protein A beads 4 h at 4 C; Western blot. Background: In western blotting, separated proteins are transferred to a membrane and probed.

B1: BAG1 (BCL2-associated athanogene 1) (protein, UniProt Q99933 1-345)
chain: MAQRGGARRPRGDRERLGSRLRALRPGREPRQSEPPAQRGPPPSGRPPARSTASGHDRPTRGAAAGARRPRMKKKTRRRSTRSEELTRSEELTLSEEATWSEEATQSEEATQGEEMNRSQEVTRDEESTRSEEVTREEMAAAGLTVTVTHSNEKHDLHVTSQQGSSEPVVQDLAQVVEEVIGVPQSFQKLIFKGKSLKEMETPLSALGIQDGCRVMLIGKKNSPQEEVELKKLKHLEKSVEKIADQLEELNKELTGIQQGFLPKDLQAEALCKLDRRVKATIEQFMKILEEIDTLILPENFKDSRLKRKGLVKKVQAFLAECDTVEQNICQETERLQSTNFALAE
In the case of B1, the binding entry was “binds”.
